Some of the results follow.

The target of the test is T1, OsSMF1 (Oryza sativa, UniProt Q6ZLB0 1-436).
T1 sequence: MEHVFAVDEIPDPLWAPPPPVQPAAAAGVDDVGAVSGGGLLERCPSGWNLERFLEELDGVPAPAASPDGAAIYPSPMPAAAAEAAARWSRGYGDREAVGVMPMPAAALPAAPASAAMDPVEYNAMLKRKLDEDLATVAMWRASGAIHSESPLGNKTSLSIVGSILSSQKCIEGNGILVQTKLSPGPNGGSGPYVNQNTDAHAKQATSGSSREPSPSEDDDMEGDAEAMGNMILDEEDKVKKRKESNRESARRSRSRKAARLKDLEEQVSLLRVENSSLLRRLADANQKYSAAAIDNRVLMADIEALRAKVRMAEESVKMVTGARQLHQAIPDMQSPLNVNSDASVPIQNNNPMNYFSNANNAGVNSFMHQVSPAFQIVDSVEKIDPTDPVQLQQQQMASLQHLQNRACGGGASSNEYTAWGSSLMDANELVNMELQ
The test can be described thus: protein-binding microarray (RPBM); PBS, 2% BSA, 51.3 ng/ul salmon testes DNA, 50 uM zinc acetate, 200 nM TF, 25 C, 1 h; high values mean tight binding. The following applies: protein: recombinant; tags: N-terminal polyhistidine and DsRed monomer fusion (pET32a); chain copies: 2; label: CyDye5-dUTP incorporated in the synthesized complementary strand; 3' TTTTT single-stranded linker to array surface; dsDNA, one strand shown. The method in brief: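 Binding signal here means per-feature fluorescence intensity in arbitrary units. The values were read on an Axon 4000B scanner after a custom Agilent array, double-stranded by primer extension with Cy5-dUTP, was incubated with 200 nM protein at 25 °C for 1 h in PBS with 2% BSA, salmon testes DNA and 50 µM zinc acetate, then washed. The proteins were transcription factors with an N-terminal polyhistidine tag and DsRed, expressed in E. coli BL21-CodonPlus and purified on Ni–NTA.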
For “ACTTCGATCTCCTCGAATCACGCGGTGCGGAAGTACGTGGCGGAGTCACCTAGTGCAG”, the binding signal is 5530 fluorescence intensity (a.u.). As for “GGCCGCTGATCTACGTGGCGGCAGTTCGGTACAGGTGGTGCGGAGTCACCTAGTGCAG”, the binding signal was 10500 fluorescence intensity (a.u.). On to “ACCCACCTAGTTGTGGTCTCCATTAAGAGACAAGTGTCCCCGGAGTCACCTAGTGCAG”, for which the binding signal is 3210 fluorescence intensity (a.u.). “ACATGCTAATGGATTGCTCTGTTTTCCGTGCGTAGGAGATCGGAGTCACCTAGTGCAG”: the binding signal was 3150 fluorescence intensity (a.u.). On to “ACCTCAACATGCCGGCAGATTGGCAGTGTGGCACCAAACCCGGAGTCACCTAGTGCAG”, for which the binding signal is 26700 fluorescence intensity (a.u.).

In the case of “GTGTTCTTCCACGTTGCTACACGCGGGAGTGGCGAGGCGTCGGAGTCACCTAGTGCAG”, the binding signal was 3180 fluorescence intensity (a.u.). For “GGGAAAATTAAGCCAAATTCTTCTACGTCAGCTCATAAAACGGAGTCACCTAGTGCAG”, the binding signal was 4930 fluorescence intensity (a.u.). As for “TATGAGTTCTGCTGACACGTGGGCCACCAGTCTATCATAACGGAGTCACCTAGTGCAG”, the binding signal was 14200 fluorescence intensity (a.u.). Consider “TTAAAACTCAATTAATCACACGTTATTACCACCTCGTTTTCGGAGTCACCTAGTGCAG”, for which the binding signal was 3210 fluorescence intensity (a.u.).

As to “TGCAGCCCGTAGGCCGTGTGGCTACGTGGATCGTAGTCCGCGGAGTCACCTAGTGCAG”, the binding signal is 4380 fluorescence intensity (a.u.). For the sequence “TGATGGCCAGTCATGTTACAGACTGTATCATGCAGTTTGACGGAGTCACCTAGTGCAG”, the binding signal was 3700 fluorescence intensity (a.u.). Take “CCTCACGCCGTCACGGCCCCACCTGTCAGCCTCCCATCTCCGGAGTCACCTAGTGCAG”: the binding signal is 3900 fluorescence intensity (a.u.). In the case of “CTCGATGCCCTTCCACGATGACTTGGCCGCCACTGCCACACGGAGTCACCTAGTGCAG”, the binding signal was 6220 fluorescence intensity (a.u.). Turning to “GCGGCCGCAGCTGCACTGCCGGTTCGTGACGAAGCTGCTCCGGAGTCACCTAGTGCAG”, the binding signal was 3420 fluorescence intensity (a.u.).

On to “CAGAGACGTTAGCTGCAACTGCAAGCATGTCAAACTTTGGCGGAGTCACCTAGTGCAG”, for which the binding signal is 3270 fluorescence intensity (a.u.). Then “ATTTAATACTTGAGTCAACTCCTTAATATCAATATTGTAACGGAGTCACCTAGTGCAG”, with 3680 fluorescence intensity (a.u.); and “ACGCTGCCCGAGTACACGGCTACACGCTCGGCTCCCGACCCGGAGTCACCTAGTGCAG”, with 22900 fluorescence intensity (a.u.); and “GATCGAGTCGTGGGTGTGCATGGTGTGCGTGGCGTCGGTTCGGAGTCACCTAGTGCAG”, with 5590 fluorescence intensity (a.u.).

Consider “GCGCCAAGGAAAGTGGCGCTGAGCTGTAGATGTCAGCGCCCGGAGTCACCTAGTGCAG”, for which the binding signal was 3940 fluorescence intensity (a.u.). Turning to “TCAGATCAGGGACACAACAGTGCACAGACGTACGTGGCAGCGGAGTCACCTAGTGCAG”, the binding signal was 9200 fluorescence intensity (a.u.). For “GGAACAATTATAGATTTACCACTTATTCTAATCGGTACCGCGGAGTCACCTAGTGCAG”, the binding signal is 7660 fluorescence intensity (a.u.).

For the sequence “GGCTAATGATGATGCGGATGGATGCTGCTAATGACTGTGGCGGAGTCACCTAGTGCAG”, the binding signal is 4470 fluorescence intensity (a.u.). Then “CGACTTCCTCGACCTGTCGCTTGTCGACGGGTTAACGTGCCGGAGTCACCTAGTGCAG”, with 3660 fluorescence intensity (a.u.); and “GAAAATCATCCAATGCTTCGGATCCAACGATAGCAGCGTGCGGAGTCACCTAGTGCAG”, with 24300 fluorescence intensity (a.u.); and “TTCTCCCACTGTCATCTTCGGCATATCCTTCTCATTGTCTCGGAGTCACCTAGTGCAG”, with 3750 fluorescence intensity (a.u.).

For the sequence “CATCTTATCTATCTAGATTTGTAATTCTAAGATGTGTCTTCGGAGTCACCTAGTGCAG”, the binding signal is 3210 fluorescence intensity (a.u.). Then “CAGCTCCTGCAATGCTAGCGTACCAAGTCCGCTGATTCAACGGAGTCACCTAGTGCAG”, with 3160 fluorescence intensity (a.u.).

As to “ACACGTGAAGCAGCAACGCCACGTCACTGCCTCACGCTGTCGGAGTCACCTAGTGCAG”, the binding signal was 7290 fluorescence intensity (a.u.). Regarding “GCAGAAAGCTTTGTAACTGCATGCCTGTGTTAGGAAGCAACGGAGTCACCTAGTGCAG”, the binding signal was 12600 fluorescence intensity (a.u.). As to “CCCTTTCACATGTCACCTCTGACCCACAAACAAACCCTTTCGGAGTCACCTAGTGCAG”, the binding signal is 4480 fluorescence intensity (a.u.). “CCGTTTAATATTTTCCATCTTGATGGACACGTGGTTTGTTCGGAGTCACCTAGTGCAG”: the binding signal is 9220 fluorescence intensity (a.u.).

Regarding “TCCATCTGCTCATGTTGTTGAGGTCCACGTCTGGTCAAAGCGGAGTCACCTAGTGCAG”, the binding signal was 4670 fluorescence intensity (a.u.). As to “TTCTTCACACACACACACGGCCTCGTGGCTTCGCGACTCCCGGAGTCACCTAGTGCAG”, the binding signal was 3550 fluorescence intensity (a.u.).

On to “ATATGTCATCGGTATCTCAATGACATGTAGGACCCACATGCGGAGTCACCTAGTGCAG”, for which the binding signal was 4140 fluorescence intensity (a.u.). As to “CAATTTCTCGTTCGCTCTCACGTGCGCGTCGCATCTCCCTCGGAGTCACCTAGTGCAG”, the binding signal was 3460 fluorescence intensity (a.u.). The value for “GCCCTAATGGTGGGCGGCAAGCTGACGTGGCAGACGGTGGCGGAGTCACCTAGTGCAG” was 29700 fluorescence intensity (a.u.); that for “GGGAGGGTGAAATCACGTGCATCGCTACGTCCGTCTTTGCCGGAGTCACCTAGTGCAG” was 3390 fluorescence intensity (a.u.); that for “GTGCTGCTGACTCCAGCTTGACCTGTAGCAGTGATCCAAACGGAGTCACCTAGTGCAG” was 3630 fluorescence intensity (a.u.). On to “ACTGGCAAACCTGGGCCGGCCGGTGGTGAATCGTGGGTTGCGGAGTCACCTAGTGCAG”, for which the binding signal is 3180 fluorescence intensity (a.u.). For “ACGCAGTCACGCAGACCACAGGGCGATGCAGCGGACCGACCGGAGTCACCTAGTGCAG”, the binding signal was 40900 fluorescence intensity (a.u.). Then “GAGAGAAGATAGTAGTGGTAGTAGTAGCTGAGCTGTGTCACGGAGTCACCTAGTGCAG”, with 3360 fluorescence intensity (a.u.); and “CGCCCTCCTGTCGCCACGTGTCTCGCCGGCGCCACCTCGCCGGAGTCACCTAGTGCAG”, with 26200 fluorescence intensity (a.u.).

For the sequence “TCCCCGGAGATTGCACACTTCTCCTCGCAACTAACAATACCGGAGTCACCTAGTGCAG”, the binding signal was 5580 fluorescence intensity (a.u.). For “GATACGCCTGGGAGGCCACGTATCCGTATCGGATACGCCTCGGAGTCACCTAGTGCAG”, the binding signal was 5440 fluorescence intensity (a.u.).

Take “ACAGGGAAATCATCAAAGATGGGGAAATTGTACTCGTAGCCGGAGTCACCTAGTGCAG”: the binding signal was 3560 fluorescence intensity (a.u.). As to “CAAATGGCTTCTACTTTTGAGCCACGTCAAAACCTCGGTTCGGAGTCACCTAGTGCAG”, the binding signal is 10500 fluorescence intensity (a.u.). Regarding “TAGCCCCTATCATATGGGTCCACGTGGGTCCCAAGATGAACGGAGTCACCTAGTGCAG”, the binding signal was 9080 fluorescence intensity (a.u.). As for “GAAGATTAGAGGTTTCTTGTAACGAACGAACGAGGCCATCCGGAGTCACCTAGTGCAG”, the binding signal was 3390 fluorescence intensity (a.u.).

On to “AGCCGCCATGGCCACGTCCACTGCCTTATCCACATCCAATCGGAGTCACCTAGTGCAG”, for which the binding signal was 6420 fluorescence intensity (a.u.). The value for “TATTTGTGGGTGTGAGTGTGGTGAGCGTGCGTGTGTCTTACGGAGTCACCTAGTGCAG” was 3900 fluorescence intensity (a.u.). Consider “TAGGAATTTCTCTAATTTATTAAAGCGCCACGTGTCAGTTCGGAGTCACCTAGTGCAG”, for which the binding signal was 31300 fluorescence intensity (a.u.).

As for “ATCGCCCTCGCTCGCCGCCACGCTGCTCCAGCGACTATTACGGAGTCACCTAGTGCAG”, the binding signal was 3780 fluorescence intensity (a.u.).

On to “CCTGGGGATGCAGATACACGACAACAACTGAAGCTTGTTGCGGAGTCACCTAGTGCAG”, for which the binding signal is 3240 fluorescence intensity (a.u.). For the sequence “TCATCCTCCGCCTCGAGCATTCCCTCTCATCCTCCCGCCCCGGAGTCACCTAGTGCAG”, the binding signal was 31400 fluorescence intensity (a.u.).

These data come from PMC7819943, “Rice protein-binding microarrays: a tool to detect cis-acting elements near promoter regions in rice”.
